The subject of the data set is Spodoptera littoralis. As to the kind of experiment: Insecticidal bioassay screening (castor leaf dip), laboratory strain of cotton leafworm. Particulars: after 72 hrs of treatment, slope of concentration-mortality (LDP) line. The class given is in vivo. As for the experimental part: Five concentrations (200, 100, 50, 25, 12.5 ppm) were designed for this synthetic compound and the reference Diflubenzuron compound as the dynamic ingredients based on mg/L via diluting the commercial formulation.
[…] Larvae of the second and fourth instars of each checked strain are prepared with treated leaves in gauze-covered glass containers for 72 hrs. An untreated control is made in which leaves are dipped in triton x-100 and distilled water only. Then the preserved leaves were removed & fresh, untreated leaves were provided for 72 hours. Three replicates (10 larvae each) were checked for each concentration. Daily inspection was carried out for all treatments and mortality percentages were recorded 3 days (72 hours) after treatment. The average mortality percentage was corrected employing Abbott's formula. The corrected mortality rate for each of the previously synthesized compounds is statistically calculated according to Finney (1970). Through this rate, the corresponding concentration test lines (LDP lines) are assessed.

For `O=C(NC(=S)Nc1ncccn1)c1cc([N+](=O)[O-])cc([N+](=O)[O-])c1` [Compound 1, 3,5-dinitro-N-(pyrimidin-2-ylcarbamothioyl)benzamide], the Slope (2nd instar larvae) came to 1.12 ± 0.36 and the Slope (4th instar larvae) was 1.12 ± 0.36.

Values taken from patent US11974571B1, “3-5-dinitro-N-(pyrimidin-2-ylcarbamothioyl)benzamide as an eco-friendly insecticidal agent against Spodoptera littoralis (boisd.)” (KING FAISAL UNIVERSITY, priority 2023, dated 2024).
